PMC4465127
No constants are given. Whether binding was seen depends on the method and setting.

Biological target: sLET-23^dim-arm (LET-23 extracellular region with six dimerization arm mutations in domain II) (C. elegans) (UniProt P24348)
Test: AUC; sedimentation equilibrium, without ligand; 1 to 8 μM receptor, 10 mM Hepes pH 8.0, 150 mM NaCl, 20 °C, three speeds; dimer to monomers; both purified

binding: no binding (tested: 1 to 8 μM)
B1: sLET-23^dim-arm (LET-23 extracellular region with six dimerization arm mutations in domain II) (domain or fragment, UniProt P24348 21-819)
chain: FGNSNAQLWKRCVSPQDCLCSGTTNGISRYGTGNILEDLETMYRGCRRVYGNLEITWIEANEIKKWRESTNSTVDPKNEDSPLKSINFFDNLEEIRGSLIIYRANIQKISFPRLRVIYGDEVFHDNALYIHKNDKVHEVVMRELRVIRNGSVTIQDNPKMCYIGDKIDWKELLYDPDVQKVETTNSHQHCYQNGKSMAKCHESCNDKCWGSGDNDCQRVYRSVCPKSCSQCFYSNSTSSYECCDSACLGGCTGHGPKNCIACSKYELDGICIETCPSRKIDAHDTEADVFNPDGRYQNGNHCVKECPPELLIENDVCVRHCSDGHHYDATKDVRECEKCRSSSCPKICTVDGHLTNETLKNLEGCEQIDGHLIIEHAFTYEQLKVLETVKIVSEYITIVQQNFYDLKFLKNLQIIEGRKLHNVRWALAIYQCDDLEELSLNSLKLIKTGAVLIMKNHRLCYVSKIDWSSIITSKGKDNKPSLAIAENRDSKLCETEQRVCDKNCNKRGCWGKEPEDCLECKTWKSVGTCVEKCDTKGFLRNQTSMKCERCSPECETCNGLGELDCLTCRHKTLYNSDFGNRMECVHDCPVSHFPTQKNVCEKCHPTCYDNGCTGPDSNLGYGGCKQCKYAVKYENDTIFCLQSSGMNNVCVENDLPNYYISTYDTEGVIETHCEKCSISCKTCSSAGRNVVQNKCVCKHVEYQPNPSERICMDQCPVNSFMVPDTNNTVCKKCHHECDQNYHCANGQSTGCQKCKNFTVFKGDIAQCVSECPKNLPFSNPANGECLDYDIASRQRKTRM
